The experiment concerns MX-1 breast xenograft, intrarenal, nude mice, tumor weight. Nature of the experiment: NCI In Vivo Anticancer Drug Screen. Data for tumor model Human Mammary Carcinoma MX-1 Xenograft (intrarenal inoculation) in NU/NU BALB/C (nude) mice. The note with it: T/C endpoint: mean tumor weight change, higher T/C = larger tumour; for T/C: evaluated on day 11. Put shortly: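 Mice w/ transplanted tumors, drug vs vehicle; endpoint survival or tumor size; value = T/C.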

[1] abbreviates: dose: 600.0 mg/kg/injection, schedule: Q04DX003 (sc), vehicle: Klucel (hydroxypropylcellulose) (HPC).

This passage reports T/C and survivor count results from PubChem BioAssay AID298 (DTP/NCI, 2004).

The list is a part of this screen's results and no random one: it is rich in T/C values a quarter to a half above the control, in often repeated tests (any T/C) and in doses without a T/C. Further doses and runs are listed elsewhere. T/C gives the treated animals as a percentage of the vehicle group. Schedules are NCI's codes, taken here to give the interval after Q, in days (D) or hours (H), and the number of doses after X. Some doses have a count of surviving animals in place of a T/C: the source holds a T/C of zero for them, seemingly a mark for toxic or unscored doses. Counts of survivors are from the toxicity check (mostly the fifth day) where no day follows; animals may have died later. Some doses were run more than once; their values stand side by side, smallest first.

For the compound `O=C1CC2(C(=O)N1CN1CCOCC1)c1ccccc1-c1ccccc12`, under “dose: 150.0 mg/kg/injection, schedule: Q04DX003 (ip), vehicle: Klucel (hydroxypropylcellulose) (HPC)”, the T/C was 133 % of control. In addition, the survivor count (dose: 1200.0 mg/kg/injection, schedule: Q04DX003 (ip), vehicle: Klucel (hydroxypropylcellulose) (HPC)) is listed as 1 of 6 on day 11.

Turning to `COc1cccc2c1C(=O)C1=C(C2=O)c2c(O)cc(CO)cc2C(O)C1O` (stereo unspecified), the survivor count is reported as 3 of 5 on day 11 (dose: 50.0 mg/kg/injection, schedule: Q04DX003 (ip), vehicle: other) and 0 of 5 on day 11 (dose: 100.0 mg/kg/injection, schedule: Q04DX003 (ip), vehicle: other).

On to `COc1cc(C(CC(C)=O)c2cc3c(cc2OC(C)=O)OCO3)cc(OC)c1OC` (stereo unspecified) (tested in a mixture with another compound), for which the survivor count is, setting by setting: (dose: 333.33 mg/kg/injection, schedule: Q04DX003 (ip), vehicle: saline with Tween-80) 0 of 6 on day 11; (dose: 400.0 mg/kg/injection, schedule: Q04DX003 (ip), vehicle: saline with Tween-80) 0 of 6 on day 11; (dose: 555.55 mg/kg/injection, schedule: Q04DX003 (ip), vehicle: saline with Tween-80) 1 of 6 on day 11.

In the case of `CNC(=S)C#N`, the survivor count reads like this: (dose: 150.0 mg/kg/injection, schedule: Q04DX003 (ip), vehicle: saline + Tween-80 + alcohol) 1 of 6 on day 11; (dose: 300.0 mg/kg/injection, schedule: Q04DX003 (ip), vehicle: saline + Tween-80 + alcohol) 0 of 6 on day 11; (dose: 600.0 mg/kg/injection, schedule: Q04DX003 (ip), vehicle: saline + Tween-80 + alcohol) 0 of 6 on day 11.

Turning to `N#Cc1c(-c2ccc(F)cc2)c(-c2ccc(F)cc2)nn(CCO)c1=O`, for the setting “dose: 50.0 mg/kg/injection, schedule: Q04DX003 (ip), vehicle: distilled water + Tween-80”, the T/C is 145 % of control. The survivor count (dose: 800.0 mg/kg/injection, schedule: Q04DX003 (ip), vehicle: distilled water + Tween-80) is recorded as 2 of 6 on day 11.

Take `CN(C)C(=O)Nc1ccc(Cl)cc1`: the survivor count (dose: 1200.0 mg/kg/injection, schedule: Q04DX003 (ip), vehicle: suspension in saline) is recorded as 1 of 5 on day 11.

`Oc1cccc2ccccc12`: the survivor count runs as follows: (dose: 300.0 mg/kg/injection, schedule: Q04DX003 (ip), vehicle: water) 1 of 6 on day 11; (dose: 600.0 mg/kg/injection, schedule: Q04DX003 (ip), vehicle: water) 0 of 6 on day 11; (dose: 1200.0 mg/kg/injection, schedule: Q04DX003 (ip), vehicle: water) 0 of 6 on day 11.

As for `Oc1cc(O)cc(/C=C/c2ccc(O)c(O)c2)c1`, the survivor count (dose: 200.0 mg/kg/injection, schedule: Q04DX003 (ip), vehicle: DMSO) is listed as 3 of 6 on day 11; the survivor count (dose: 300.0 mg/kg/injection, schedule: Q04DX003 (ip), vehicle: DMSO) is listed as 2 of 6 on day 11; the survivor count (dose: 400.0 mg/kg/injection, schedule: Q04DX003 (ip), vehicle: DMSO) is listed as 0 of 6 on day 11.

Regarding `O=S1(=O)CS(=O)(=O)OCCO1`, the survivor count is 2 of 6 on day 11 (dose: 75.0 mg/kg/injection, schedule: Q04DX003 (sc), vehicle: Klucel (hydroxypropylcellulose) (HPC)); 1 of 6 on day 11 (dose: 100.0 mg/kg/injection, schedule: Q04DX003 (sc), vehicle: Klucel (hydroxypropylcellulose) (HPC)); 0 of 6 on day 11 (dose: 150.0 mg/kg/injection, schedule: Q04DX003 (sc), vehicle: Klucel (hydroxypropylcellulose) (HPC)); 0 of 6 on day 11 and 1 of 6 on day 11 (dose: 300.0 mg/kg/injection, schedule: Q04DX003 (sc), vehicle: Klucel (hydroxypropylcellulose) (HPC)); 0 of 6 on day 11 under setting [1].

`Cn1nnc2c(C(N)=O)ncn2c1=O`: the survivor count is 0 of 6 on day 11 (dose: 600.0 mg/kg/injection, schedule: Q04DX003 (ip), vehicle: saline); 0 of 6 on day 11 (dose: 600.0 mg/kg/injection, schedule: Q04DX003 (ip), vehicle: suspension in saline); 0 of 6 on day 11 (dose: 1200.0 mg/kg/injection, schedule: Q04DX003 (ip), vehicle: saline).

In the case of `CN1C2CCC1C(Br)C(=O)C2` (stereo unspecified), the survivor count reads like this: (dose: 400.0 mg/kg/injection, schedule: Q04DX003 (ip), vehicle: saline) 0 of 6 on day 11; (dose: 800.0 mg/kg/injection, schedule: Q04DX003 (ip), vehicle: saline) 0 of 6 on day 11.

With `O=CC(NC(=O)N(CCCl)N=O)C(O)C(O)C(O)CO` (stereo unspecified), the survivor count reads like this: (dose: 12.0 mg/kg/injection, schedule: Q01DX010 (sc), vehicle: Klucel (hydroxypropylcellulose) (HPC)) 1 of 3 on day 11; (dose: 24.0 mg/kg/injection, schedule: Q01DX010 (sc), vehicle: Klucel (hydroxypropylcellulose) (HPC)) 0 of 3 on day 11.

With `CSc1ncnc2c1ncn2C1OC(CO)C(O)C1O` (stereo unspecified), the survivor count is given as 0 of 6 on day 11 (dose: 300.0 mg/kg/injection, schedule: Q04DX003 (sc), vehicle: saline + alcohol) and 0 of 6 on day 11 (dose: 600.0 mg/kg/injection, schedule: Q04DX003 (sc), vehicle: saline + alcohol).

On to `Cc1nc(N)nc(N)c1N1CCN(c2ccc(C(=O)NC(CCC(=O)O)C(=O)O)cc2)CC1` (stereo unspecified), for which, where the note is “dose: 200.0 mg/kg/injection, schedule: Q04DX003 (ip), vehicle: other”, the T/C was 145 % of control.

Take `O=c1[nH]c(=O)n(C2CC(O)C(CO)O2)cc1F` (stereo unspecified): where the note is “dose: 200.0 mg/kg/injection, schedule: Q01DX010 (sc), vehicle: water”, the survivor count was 0 of 3 on day 11 and 1 of 3 on day 11.

On to `COc1cc([C@@H]2c3cc4c(cc3[C@@H](OC3OC5CO[C@@H](c6cccs6)OC5C(O)C3O)[C@H]3COC(=O)[C@H]23)OCO4)cc(OC)c1O` (stereo partly specified), for which the survivor count (dose: 8.75 mg/kg/injection, schedule: Q01DX010 (ip), vehicle: saline) is 0 of 6 on day 11; the survivor count (dose: 17.5 mg/kg/injection, schedule: Q01DX010 (ip), vehicle: saline) is given as 0 of 6 on day 11; the survivor count (dose: 33.0 mg/kg/injection, schedule: Q01DX010 (ip), vehicle: saline) was 0 of 6 on day 11; the survivor count (dose: 66.0 mg/kg/injection, schedule: Q01DX010 (ip), vehicle: saline) is listed as 0 of 6 on day 11; the survivor count (dose: 132.0 mg/kg/injection, schedule: Q01DX010 (ip), vehicle: saline) is 0 of 6 on day 11; the survivor count (dose: 264.0 mg/kg/injection, schedule: Q01DX010 (ip), vehicle: saline) was 0 of 6 on day 11.

As to `COC1C(N)C(OC2C(Oc3cccc4c(O)c5c(=O)oc6ccc(C)c7c(=O)oc(c34)c5c67)OC(C)C(O)C2(C)O)OC(C)C1O` (stereo unspecified), the survivor count was 0 of 6 on day 11 (dose: 10.0 mg/kg/injection, schedule: Q04DX003 (ip), vehicle: lactic acid); 0 of 6 on day 11 (dose: 20.0 mg/kg/injection, schedule: Q04DX003 (ip), vehicle: lactic acid); 0 of 6 on day 11 (dose: 40.0 mg/kg/injection, schedule: Q04DX003 (ip), vehicle: lactic acid).

Turning to `CC(=O)Nc1ccc(Nc2ccc(C(=C3C=CC(=[N+](C)CCC#N)C=C3)c3ccc(N(C)CCC#N)cc3)cc2)cc1`, the survivor count (dose: 400.0 mg/kg/injection, schedule: Q04DX003 (ip), vehicle: suspension in saline) is on record as 0 of 6 on day 11 and the survivor count (dose: 800.0 mg/kg/injection, schedule: Q04DX003 (ip), vehicle: suspension in saline) was 0 of 6 on day 11.

Regarding `CC(=O)CC(=O)CCC(=O)O`, the T/C (dose: 600.0 mg/kg/injection, schedule: Q04DX003 (sc), vehicle: saline) is 140 % of control. Further, the survivor count (dose: 2400.0 mg/kg/injection, schedule: Q04DX003 (sc), vehicle: saline) is listed as 1 of 6 on day 11.

Regarding `O=C(O)c1cc(C(=O)O)c(C(=O)O)cc1C(=O)O.[NH2-].[NH2-].[NH2-].[NH2-].[Pt+2].[Pt+2]`, where the note is “dose: 80.0 mg/kg/injection, schedule: Q04DX003 (ip), vehicle: water”, the survivor count was 1 of 6 on day 11.

Take `COC1C(CO)OC(n2cnc3c(=S)nc(N)[nH]c32)C1O` (stereo unspecified): the survivor count by setting is: under setting [1], 2 of 6 on day 11; (dose: 1200.0 mg/kg/injection, schedule: Q04DX003 (sc), vehicle: Klucel (hydroxypropylcellulose) (HPC)) 0 of 6 on day 11.
